Test [1] deals with T25-ZipN (Anabaena sp. strain PCC 7120). Description: two-hybrid; bacterial adenylate cyclase two-hybrid (BACTH) in E. coli BTH101; beta-galactosidase activity in liquid cultures at 30°C with IPTG.
The target of test [2] is SepF-T25 (Anabaena sp. strain PCC 7120). Described as above.
Test [3] deals with SepJ-T18 (Anabaena sp. strain PCC 7120). Described as above.
The target in test [4] is 6His-ZipN (Anabaena sp. strain PCC 7120). Description: pull-down; copurification: E. coli cell-free extracts mixed and incubated overnight at 4°C in buffer A (50 mM Tris-HCl pH 7.5, 150 mM KCl, 10% glycerol), passed through a His-Select column, washed with 300 mM imidazole, eluted with 1 M imidazole; Western blot against Strep-tag and MALDI-TOF. For orientation: A western blot detects proteins with antibodies after separation by electrophoresis.

These are yes or no findings as the source states them, for the method shown. Binding calls can cover weak binding; strength is not graded here. For some of these results: Binding seen in cells or lysates may run through a third protein. For some of these results: Sequences can lack the tags named with a protein.

B1: T18-PatA (protein, UniProt P39048 1-379)
chain: MKTLPITRYRFFQKIQPLSLLKKITGKTITGCLQVFSTSGTWSIYVEEGKLIYACYSERMFEPLYRHLGNLSPQIATLPKEINEQLRAIFETGIENQAIPNPDYLAICWLVNQKYISSSQAAVLIEQLALEVVESFLMLEEGSYEFIPESFLDDLPKFCYLNVRLLVEQCQQHGRVPEAFRREASSQEISSSTEHNQIPVNNRRSTKFTSPPHTQPKPEPRLPQINTNKSTEYSKRYASQPNTVNHGYSQTSATSTDKKIYTIFCIDENPIVLNNIKNFLDDQIFAVIGVTDSLKALMEILCTKPDIILINVDMPDLDGYELCSLLRKHSYFKNTPVIMVTEKAGLVDRARAKIVRASGHLTKPFNQGDLLKVIFKHIT
For the molecule B1, the binding result in test [1] and in test [2] was “binds” throughout.

B2: T25-PatA (protein, UniProt P39048 1-379)
chain: B1 chain
Consider B2, for which, in test [3], the binding entry is given as “binds weakly”.

B3: Strep-tag-PatA (protein, UniProt P39048 1-379)
chain: B1 chain
Take B3: in test [4], the binding entry is “binds”.

Source of the values: paper PMC7380572.
